Source: patent US20040162328A1, “Compounds of the family of 3-alkyl-(4,5-diphenyl-imidazol-1-yl) and their use as soothing agents” (priority 2001, published 2004)
Some of these results come from one statement about several compounds together.

System: normal human keratinocytes
Assay: Cytotoxicity by MTT on normal human keratinocytes cultured in vitro
Assay type: cell-based
Settings: MTT 0.5 mg/ml, 2 hours; formazan measured after 24 hours

SMILES | cytotoxicity
NCCCCn1cnc(-c2ccccc2)c1-c1ccccc1 [4,5-diphenyl-1H-imidazole-1-butanamine] | less than 20%
NCCCn1cnc(-c2ccccc2)c1-c1ccccc1 [4,5-diphenyl-1H-imidazole-1-propanamine] | less than 20%
